According to paper PMC11930424:
No constants are given. Whether binding was seen depends on the method and setting. Binding seen in cells or lysates may run through a third protein. Some binding calls cover weakened binding; strength is not graded here. For some of these results: Tags and fused reporters may be left off the sequences shown. Each block holds one molecule with its values, some of them ahead of it.

The chains behind the UniProt entries cited, without tags or fusion partners.
UniProt Q8N6T7: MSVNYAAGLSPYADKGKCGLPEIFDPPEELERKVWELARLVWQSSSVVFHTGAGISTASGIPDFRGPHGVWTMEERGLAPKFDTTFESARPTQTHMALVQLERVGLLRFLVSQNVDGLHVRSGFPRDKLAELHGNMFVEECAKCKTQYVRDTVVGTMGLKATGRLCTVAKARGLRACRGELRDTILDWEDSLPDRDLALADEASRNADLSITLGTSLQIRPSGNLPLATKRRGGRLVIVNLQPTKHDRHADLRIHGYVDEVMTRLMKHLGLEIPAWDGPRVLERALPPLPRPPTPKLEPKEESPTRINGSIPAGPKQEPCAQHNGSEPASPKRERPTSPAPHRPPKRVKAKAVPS
UniProt P61244: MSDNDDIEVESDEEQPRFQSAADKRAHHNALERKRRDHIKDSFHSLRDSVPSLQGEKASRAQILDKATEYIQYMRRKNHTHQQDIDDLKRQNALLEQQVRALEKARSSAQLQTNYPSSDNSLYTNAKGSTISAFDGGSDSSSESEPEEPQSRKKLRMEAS
UniProt P01106: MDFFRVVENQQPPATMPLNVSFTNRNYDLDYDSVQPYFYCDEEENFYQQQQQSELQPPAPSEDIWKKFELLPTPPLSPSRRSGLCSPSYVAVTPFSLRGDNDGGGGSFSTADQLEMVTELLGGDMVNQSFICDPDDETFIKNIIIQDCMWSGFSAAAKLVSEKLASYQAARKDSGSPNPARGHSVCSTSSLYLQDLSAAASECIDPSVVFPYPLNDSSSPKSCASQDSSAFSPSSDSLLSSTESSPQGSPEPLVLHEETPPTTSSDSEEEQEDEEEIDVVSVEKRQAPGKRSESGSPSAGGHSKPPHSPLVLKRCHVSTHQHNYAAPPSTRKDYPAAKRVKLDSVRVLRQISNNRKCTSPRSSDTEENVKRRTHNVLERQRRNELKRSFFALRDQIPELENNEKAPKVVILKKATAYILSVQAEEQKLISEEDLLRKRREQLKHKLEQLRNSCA

Legend:
[1] = molecular target: T1, His-tagged GCIP (UniProt O95273); test: proximity ligation; A549 cells transfected with GCIP-His for 24 h; Duolink PLA mouse/rabbit kit; anti-His tag with anti-c-Myc, anti-Max or anti-SIRT6; also with si-Max
T1 sequence: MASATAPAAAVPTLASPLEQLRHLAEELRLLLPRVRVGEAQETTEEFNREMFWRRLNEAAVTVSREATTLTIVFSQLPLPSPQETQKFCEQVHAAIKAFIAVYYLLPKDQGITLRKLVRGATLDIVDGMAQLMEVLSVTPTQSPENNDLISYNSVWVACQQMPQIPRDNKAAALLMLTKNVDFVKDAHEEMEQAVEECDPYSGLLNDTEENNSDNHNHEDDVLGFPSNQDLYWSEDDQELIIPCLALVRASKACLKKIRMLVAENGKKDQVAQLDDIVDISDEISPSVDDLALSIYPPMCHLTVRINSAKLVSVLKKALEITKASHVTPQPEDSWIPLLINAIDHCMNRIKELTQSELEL

[2] = molecular target: Sirtuin 6 (SIRT6), endogenous (human (endogenous in MKN-45 and A549)) (UniProt Q8N6T7); test: proximity ligation; cells transfected with si-GCIP or si-SIRT6 for 24 h, then PLA
[3] = molecular target: Sirtuin 6 (SIRT6), endogenous (human (endogenous in MKN-45 and A549)) (UniProt Q8N6T7); test: co-IP; endogenous proteins; 2 mg cell extract (MKN-45, A549) with 1 ug anti-c-Myc or anti-SIRT6 and protein G agarose beads, 4 °C overnight, Western blot; also after si-GCIP (24 h)
[4] = molecular target: T2, recombinant GST-GCIP (UniProt O95273); test: pull-down; cell lysates pulled down by recombinant GST-GCIP in vitro, Western blot; only the target purified
T2 sequence: T1 sequence

[5] = molecular target: T1, His-tagged GCIP; test: pull-down; Nickel sepharose pull-down of GCIP-His from lysates of cells transfected for 24 h, Western blot; also after si-SIRT6 (24 h)
[6] = molecular target: Sirtuin 6 (SIRT6), endogenous (human (endogenous in MKN-45 and A549)) (UniProt Q8N6T7); test: co-IP; endogenous proteins; 2 mg cell extract (MKN-45, A549) with 1 ug anti-c-Myc or anti-SIRT6 and protein G agarose beads, 4 °C overnight, Western blot; also after si-GCIP (24 h); remark: listed apart in the source

binding [1]: binds
Molecule: Max, endogenous (from UniProt P61244 1-160)

binding [1]: binds | binding [4]: binds | binding [5]: binds
Molecule: Sirtuin 6 (SIRT6), endogenous (from UniProt Q8N6T7 1-355)

The next lines start with the molecule.

Molecule: c-Myc, endogenous (from UniProt P01106 1-454)
binding [2]: binds | binding [3]: binds

B1: Grap2 and CyclinD1 interacting protein (GCIP), endogenous (protein, UniProt O95273 1-360)
chain: T1 sequence
binding [6]: binds
